{"source": "patent US6528516B1", "about": "“Methods for reducing intraocular pressure using A3 adenosine receptor antagonists” (Trustees of the University of Pennsylvania, The Center for …, priority 1998, dated 2003)", "origin": "cited, not measured here", "target": "protein kinase C (PKC)", "conditions": "read-out: Ki for inhibition of protein kinase C; depending on the assay system; cited from earlier work", "data": [{"smiles": "CC/C(=C(\\c1ccccc1)c1ccc(OCCN(C)C)cc1)c1ccccc1", "note": "[tamoxifen]", "values": [{"measurement": "Ki", "value": "5 to 100", "unit": "µM"}]}]}
